For one molecule, binding results are on record in patent publication CN108341870A.

By UniProt entry, the sequences of proteins in these tests, tags left out. Residues count along the entry.
UniProt P02769, residues 25-607: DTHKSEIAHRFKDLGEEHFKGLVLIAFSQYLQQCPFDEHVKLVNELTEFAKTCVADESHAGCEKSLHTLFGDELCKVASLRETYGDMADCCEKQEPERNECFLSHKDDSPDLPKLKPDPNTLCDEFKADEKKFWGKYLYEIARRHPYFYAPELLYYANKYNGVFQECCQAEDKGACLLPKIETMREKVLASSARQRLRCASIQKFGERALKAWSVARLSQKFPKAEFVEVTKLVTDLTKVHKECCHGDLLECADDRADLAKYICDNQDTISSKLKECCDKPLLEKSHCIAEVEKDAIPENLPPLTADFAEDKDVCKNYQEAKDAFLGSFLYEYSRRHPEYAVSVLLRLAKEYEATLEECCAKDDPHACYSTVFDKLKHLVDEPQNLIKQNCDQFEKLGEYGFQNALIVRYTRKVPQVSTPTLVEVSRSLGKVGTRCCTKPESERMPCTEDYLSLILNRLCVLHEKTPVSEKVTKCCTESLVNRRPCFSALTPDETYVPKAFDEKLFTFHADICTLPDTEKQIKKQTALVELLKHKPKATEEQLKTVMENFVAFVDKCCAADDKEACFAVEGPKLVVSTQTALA

These are yes or no findings as the source states them, for the method shown. Some entries that bind do so weakly or less than the wild type.

The target of experiment [1] is 牛血清白蛋白 (bovine serum albumin, BSA) (牛 (bovine)) (UniProt P02769). The experiment can be described thus: PHAGE-ELISA, BSA coated, phagemid clone in the binding step.
For experiment [2] the target is unchanged. Put plainly: PHAGE-ELISA, BSA coated, phagemid clone in the binding step, OD450. Background: In an ELISA, binding on a coated surface is turned into a signal by an enzyme label.

B1: 抗BSA纳米抗体 克隆7 (anti-BSA nanobody, phagemid clone 7) (VHH)
VHH: QLQLVESGGGLVQPGGSLRLSCAASGSTFGTYAVGWFRQAPGKEREGISCISGRGERTYYADSVKGRFTISRDNAKSVLYLQMNNVNAEDTAVYYCALARWRGSACGPITPMGQGTQVTVSS
Regarding B1, the binding entry in experiment [1] and in experiment [2] was “binds” throughout.
